Sequences and labels used below:
T1: Smn-GFP (Drosophila Smn with eGFP fused to its C-terminal end) (Drosophila melanogaster) (UniProt Q9VV74)
T1 sequence: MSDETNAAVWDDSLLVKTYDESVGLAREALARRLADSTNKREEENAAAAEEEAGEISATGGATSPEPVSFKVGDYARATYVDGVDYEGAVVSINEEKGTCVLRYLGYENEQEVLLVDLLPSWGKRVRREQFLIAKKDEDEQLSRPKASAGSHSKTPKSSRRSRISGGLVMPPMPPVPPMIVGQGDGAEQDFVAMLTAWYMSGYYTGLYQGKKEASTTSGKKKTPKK

B1: Gem4a (Glos or CG2941), endogenous (protein, UniProt Q9W4N9 1-911)
chain: MITAKKHPLDNCQLFVQLKKLFHDYNEKVQRLKDMIYWSGNDEHIAKICDQVTDLLVEHDLIIQPPDTMDPCAMNHLRGLLVYLVLNTAHDDIQCESQWSANVMHLCNQLPPIPLFLTIAIAVNCCLMEPLEEFLACGPRWLTIQYFEAFNEALSVINSDCVETLPLLSAALRAAGRAIVNCNLPAENKQLLRQIACMEHRHILDSKQRLHTLPRPSTRKIYLAKAMDHLIEVLLYTLNDPLKREKPNCFAVYSQITEDISDSNSSDPMPDLRHFAQILLDVLQRIFQLVSVDTYMYWHEMKSKSALYNCQELICRQTAELLKVLQSDKLLGEHPVCKQMQSFADAAKTLEQRVAEMRIGELLAFIDSGMATNEELLAGLDNLFSRFIAFGSDECLETMANHLIMLTKKHAQIILSFLGQVVESEMVVEDEGISVTEVNQGDDEDETSSNDDYEELLSLVLRPLFMQLNVEDKMEVLLLRDEQNVTQGFNFKAPDHRERRIRFFNQLDYNKRFPITEFLVLCFENARQTWIDFSHLGVTHTRFSKLFWHIAQSCPKHAAFHISACADNILVNEQLLQKPYALQFTLYLYGHRQILNGLYTSARQLCVSLKDGRCPYGEDELRQAQNRFLDACAYGLAKFIEPMNLPSLQLILKLLKQISLGESNLITRGTAELNALEKEHPKLENGDDAPAVKVAKHYTYLHASLPEWRLKHWKLISHVMKTIDALRWDLATFEDFRVDNLELAVWYWQDGLSHLTFLGTEFRQRILNQVSKLKHKDFWIIYLKEDTLKDTRSFLKLLTQSSAQEANDLFNKLLKKRADCAVMGDLSDAVVKVNSESAFMAFRFLFREYLIAFRSHAKHNKTITKRQHWDHLMAVVAKAPFSIRNEIMELASKAFAVRFGINIQEQQAAKC
B2: Gem3 (Drosophila Gemin3), endogenous (protein, UniProt Q9V3C4 1-1028)
chain: MEREIAHSLAGGEERSSDVAPGQVKTFEELRLYRNLLNGLKRNNFVTPTKIQAAAIPMALAKMDLIIQSKSGTGKTLIYVIAVVQSFNPNINQPHAMIVVPTRELAIQVQDTFFHLCKSFRDFKCSAFIGGTDVAKDRKRMNESRVIIGTPGRLLHLYENRVFDVSKLRLLVLDEADQLYQTKSLQHTVSKLIEAMPKNRQIIACSATYDQNLDERLAKVMDKPMLISNSERATVLLGIRQFVYELPQQNNSVEEMRLKLQILGQIFNQLPYEQAIIFASSQMRADSYKNYLTASGIDCHLISGAMEQSERLHVFEGYRNFTMRILVATDLMARGVDSPHANLVINIDPPQDHVTYLHRIGRAGRFGSKGIAITFIASKKESQRFREMSKKIATAWSVLEFPKEPMPNEFNFWDFEKYNFDYYIKEENPLQEMPMPIKENRSKENVDASSVDLENLQKDQDGKRRDPDKLPVALENVETQKELELENLPESSHNNKNLRVKEKEIVRQGKLKETNSKAGGSKTNKTERRKKSNTPSKLQKQITEVQQTPEITVNKYYMQEDIQRTADGKEYHPVNGAGNHQVPSKSNQKPVEFISPELTPTLTPLELTQEPSPTTVTPPAPPANSINNKTYCLAAPTQTSSMTIQNMVISNTVDDASSISSDSMVVCGYHSDRSYDTYYATSDEEEIWNRLMSKQRRQLKSKRGHGKRRVILYKKVFPKLKANVKRKLKKRMSSSCRSKKAHHLRKRHVYKNISLLPHMNLCHLLQKFTNQERFLKRLHKYAKNQFIDNARVGFLLDKLYKSILEMYYNSAKERKKHFKEAMKESLKSIDNYESQESSESEEEEEEEKDLKNKLSVHVTNQMDIPPMPQAAVEIGSGSESDTEDSQEYGEGEEIIVDDEDDGSDGGPNSSSGFVESQESVSSGIDTSVYETESTGASGNNSSAFFISDDESDTESLTDSEAGSNVSATGSSSQRSSVASSTYESSDDDSVTVTNVSSMQNAQSLWLQTFNMQYQFIASHVAKNLQNYY
B3: Gem2 (Drosophila Gemin2), endogenous (protein, UniProt Q9VVX0 1-245)
chain: MQHEPEDQTFQLQALEICEPDSSFDPQKPPESGEEYLMHMFYERKRCPAVVTKRSSKIRNNTGNTTLEMLDNPELPPFKCLLPTPEWRDEQVKSFQAARSQVLVLRKELANNNYDQSGEPPLTSDQEKWKEFCRNQQPLLSTLLHLTQNDLELLLEMLSKWLQDPNTTVDLLHDVWLARWLYATLVCLHLPLEPHVFSTLRYIARTCIHLRNQLKEDEVQRAAPYNLLLTLTVQVFAQNDFKDYI
B4: Cap binding protein (Cbp80), endogenous (protein, UniProt Q7K4N3 1-800)
chain: MSRRRAHDTEDEGYDHRRNKRRRVSENQEIEDRLESLILRVGERSTSSVESNLEGLVSVLEADLGTFRLKILRILSDCAVRMPEKCTVYTTLVGLLNAKNYKFGGEFVDHMVKTFKESLKMCRWDAARYSLRFLADLVNCHVISATSLLQLLDTMIDVSNEDTVPQVRRDWFVFAVLSTLPWVGRDLYEKKESALESLLLRIEVYLNKRSKKHHNALRVWSSDAPHPQEEYLDCLWAQIRKLRQDNWAEKHIPRPYLVFDSILCEALQHNLPTIVPPPHHDNFEYPMPWVVYRMFDYTDCPDGPNLPGAHSIERFLIEEHLHHIIETYHHERKDCAAQLLSFPYKHKIPLEYCIVEVVFAELFHMPTPRYLDICYGSILIELCKLQPATLPQVLAQATEILFMRIDSMNTSCFDRFVNWFSYHLSNFKFTWSWDEWDSCLLLDGEHPRPKFIQEVLQKCLRLSYHQRITEMMPTTYAKLIPLTPVPNYKYANEEAANLPGTTVAHQLVVAIRQKCTPEEVVNILKDIPNSGYSGEEMSDGSFNALKIDVFVQTLLNLGSKSFSHSFAAISKFHSVFRALAETEEAQICILHNIFELWSSHQQMMVVLIDKLLKLQIVDCSAVATWIFSKEMTGEFTKLYLWEILHLTIKKMNKHVIKLNTELSEAKEKLAKADSSSSDSEDDSSHKRKKPITHADKPSEEVVERMEEKLEAANVNQKRLFLIVFQRFIMILSEHLLRSDTDGRDPDTDWYRWTIGRLQQVFLMHHEQVQKYSSTLETLLFTSDLDTHILEVFQQFVALRA
B5: Gem4b (CG32786), endogenous (protein, UniProt Q8IRT0 1-911)
chain: MITAEKHPLDNCQLFVQLKKIFHDNNEQAKCLKDMIYWSGNDEHIEKICDQVTDLLEEHDLIIQPPDTMDPFAMNQLRGLLVYLVLNTAHDYFLCKSQWSANVMHLCNQLPPIPLFLTIAIAVNCCLMEPLEEFLACGPRWLTIQYFEAFNEALSVINSDCVETLPLLSAALRAAGRAIVNCNLPAENKQLLRQIACMEHRHILDSKQRLHTLPRPSTRKIYLAKAMDHLIEVLLYTLNDPLKREKPNCFAVYSQITEDISDSNSSDPMPDLRHFAQILLDVLQRIFQLVSVDTYMYWHEMKSKSALYNCQELICRQTAELLKVLQSDKLLGEHPVCKQMQSFADAAKTLEQRVAEMRMGELLVFLDSGMATDEELLAGLDNLFSRFIAFGNDECVETMANHLIMLTKKHAQIILSFLGQVVESEMVVEDEGISVTEVNQGDDEDETSSNDDYEELLSLVLRPLFMQLNVEDKMEVLLLRDEQNVTQGFNFKAPDHRERRIRFFNQLDYNKRFPITKFLVLCFENARQTWIDFSHLGVTHTRFSKLFWHIAQSCPKHAAFHISACADNILVNEQLLQKPYALQFTLYLYGHRQILNGLYTSARQLCVSLKDGRCPYGEDELRQAQNRFLDACAYGLAKFIEPMNLPSLQLILKLLKQISLGESNLITRGTAELNALEKEHPKLENGDDAPAVKVAKHYTYLNASLPEWRLKHWKLISHVMKTIDALRWDLATFEDFRVDNLELAVWYWQDGLSHLTFLGTECRQRILNQVNSLKHKGFWLIYLKEDTLKDTRSFLKLLTQSSAQEANDLFNKLLKKRADCAVMGDLSDAVVKVNSESAFMAFRFLFREYLIAFRSHAKHNKTITKRQHWDHLMAVVAKAPFSIRNEIMKLASKAFAVRFGINIQEQQAAKC

This passage reports binding results from paper PMC7289441.

No constants are given. Whether binding was seen depends on the method and setting. In cells and extracts the contact can be indirect. Here binding means that the protein was enriched with, or labelled near, the bait; the list need not be complete. Where a sequence is shown, tags or fusion partners need not be part of it.

The test concerns the target T1, Smn-GFP (Drosophila Smn with eGFP fused to its C-terminal end) (Drosophila melanogaster). Kind of test: affinity purification with mass spectrometry; Smn-GFP as bait on GFP-TRAP-A beads; clarified extract of 0-3 h embryos in C buffer (50 mM HEPES pH 7.4, 50 mM KCl, 1 mM MgCl2, 1 mM EGTA, 0.1% IGEPAL CA-630), 2 h at 4°C; stringent filtering against negative controls, score above 50.
Regarding Lsm11, endogenous, the binding entry is reported as “binds”. As for B1, the binding entry is reported as “binds”. For B2, the binding entry is “binds”. Then B3, with “binds”; and B4, with “binds”. Then B5, with “binds”.
